# The list is a part of this screen's results and no random one: it is rich in T/C values a quarter to a half above the control, in often repeated tests (any T/C) and in doses without a T/C. Further doses and runs are listed elsewhere. T/C gives the treated animals as a percentage of the vehicle group. Some doses have a count of surviving animals in place of a T/C: the source files T/C as zero there, which appears to mark a toxic dose or a test without result, not a measured value. Some survivor counts are full or nearly so, which does not show that the dose was tolerated: survival well below the control is almost never listed, so the zero probably covers shortened survival too. Counts of survivors are from the toxicity check (mostly the fifth day) where no day follows; animals may have died later. Schedules are NCI's codes, taken here to give the interval after Q, in days (D) or hours (H), and the number of doses after X. Some schedule codes hold Z or #, which are not explained here. Where survival is the endpoint, this PubChem deposit counts one and a half times the control or more as active, and values a quarter to a half above the control carry no call in these data; other NCI protocols may use other cut-offs. Some T/C values are followed by the survivors on the day toxicity was checked, most often the fifth; without a count, all were alive then.
# Tested on: L1210 leukemia ip in BDF1 mice, survival T/C
# Experiment: NCI In Vivo Anticancer Drug Screen. Data for tumor model L1210 Leukemia (intraperitoneal) in B6D2F1 (BDF1) mice
# Settings: T/C endpoint: mean survival time, higher T/C = longer survival; for T/C: vehicle: carboxymethylcellulose (CMC)
# [1] = dose: 200.0 mg/kg/injection, schedule: Q04DX003 (ip), vehicle: Klucel (hydroxypropylcellulose) (HPC)
# [2] = dose: 400.0 mg/kg/injection, schedule: Q04DX003 (ip), vehicle: Klucel (hydroxypropylcellulose) (HPC)
# [3] = dose: 100.0 mg/kg/injection, schedule: Q01DX001 (ip), vehicle: saline
# [4] = dose: 200.0 mg/kg/injection, schedule: Q01DX001 (ip), vehicle: saline
# [5] = dose: 400.0 mg/kg/injection, schedule: Q01DX001 (ip), vehicle: saline
# [6] = dose: 400.0 mg/kg/injection, schedule: Q01DX009 (ip), vehicle: Klucel (hydroxypropylcellulose) (HPC)
structure (smiles),measurement,setting,value
CS(=O)(=O)OCCN=C(N)N[N+](=O)[O-],survivor count,[1],1 of 6
same,survivor count,[2],0 of 6
CC(=O)NC(CSCc1c2ccccc2c(C)c2ccccc12)C(=O)O (stereo unspecified),survivor count,"dose: 400.0 mg/kg/injection, schedule: Q01DX009 (ip), vehicle: saline with Tween-80",5 of 6
CC(CCc1ccc(O)cc1)OC=O (stereo unspecified),survivor count,"dose: 500.0 mg/kg/injection, schedule: Q01DX Z (ip), vehicle: saline",2 of 6
CCCCN(CCCC)CCCNc1c2c(nc3ccccc13)CCCC2,survivor count,[3],0 of 4
same,survivor count,[4],0 of 4
same,survivor count,[5],0 of 4
COCCN(N=O)C(=O)NC1CCCCC1,T/C,"dose: 600.0 mg/kg/injection, schedule: Q01DX001 (ip)",125 % of control
same,T/C,"dose: 650.0 mg/kg/injection, schedule: Q01DX001 (ip)",130 % of control
same,T/C,"dose: 750.0 mg/kg/injection, schedule: Q01DX001 (ip)",129 % of control [5 of 6 alive]
same,T/C,"dose: 900.0 mg/kg/injection, schedule: Q01DX001 (ip)",138 % of control
O=c1cccccc1O.O=c1cccccc1O.[Cu],survivor count,"dose: 12.5 mg/kg/injection, schedule: Q01DX009 (ip), vehicle: Klucel (hydroxypropylcellulose) (HPC)",4 of 6
same,survivor count,"dose: 25.0 mg/kg/injection, schedule: Q01DX009 (ip), vehicle: Klucel (hydroxypropylcellulose) (HPC)",0 of 6
same,survivor count,"dose: 50.0 mg/kg/injection, schedule: Q01DX009 (ip), vehicle: Klucel (hydroxypropylcellulose) (HPC)",0 of 6
same,survivor count,[3],0 of 6
same,survivor count,"dose: 100.0 mg/kg/injection, schedule: Q01DX009 (ip), vehicle: Klucel (hydroxypropylcellulose) (HPC)",0 of 6
same,survivor count,[4],0 of 6
same,survivor count,"dose: 200.0 mg/kg/injection, schedule: Q01DX009 (ip), vehicle: Klucel (hydroxypropylcellulose) (HPC)",0 of 6
same,survivor count,[5],0 of 6
same,survivor count,[6],0 of 6
CCOC(=O)c1cccc2ccc[n+](C)c12,survivor count,"dose: 300.0 mg/kg/injection, schedule: Q01DX001 (ip), vehicle: saline",2 of 6
COC(=O)C12Oc3ccc(-c4ccc5c(c4O)C(O)=C4C(=O)CC(C)C(O)C4(C(=O)OC)O5)c(O)c3C(O)=C1C(=O)CC(C)C2O (stereo unspecified),survivor count,"dose: 12.5 mg/kg/injection, schedule: Q01DX009 (ip), vehicle: saline with Tween-80",3 of 6
same,survivor count,"dose: 25.0 mg/kg/injection, schedule: Q01DX009 (ip), vehicle: saline with Tween-80",6 of 6
same,survivor count,"dose: 50.0 mg/kg/injection, schedule: Q04DX003 (ip), vehicle: saline with Tween-80",6 of 6
same,survivor count,"dose: 100.0 mg/kg/injection, schedule: Q04DX003 (ip), vehicle: saline with Tween-80",5 of 6
same,survivor count,"dose: 200.0 mg/kg/injection, schedule: Q04DX003 (ip), vehicle: saline with Tween-80",2 of 6
C=CCCCCCCCCC(=O)NCCCN1CCOCC1,survivor count,"dose: 200.0 mg/kg/injection, schedule: Q01DX009 (ip), vehicle: saline with Tween-80",0 of 6
CCC(C)C(CN)(CCCCN1CCOCC1)c1cccc2ccccc12 (stereo unspecified),survivor count,"dose: 400.0 mg/kg/injection, schedule: Q04DX003 (ip), vehicle: saline with Tween-80",6 of 6
C#CCC1(OC(N)=O)CCCCC1,survivor count,[6],3 of 6
Cc1c(/C=N/NC(=O)CCCC(=O)N/N=C/c2c(C)n(C)n(-c3ccccc3)c2=O)c(=O)n(-c2ccccc2)n1C,survivor count,[4],0 of 4
same,survivor count,[5],0 of 4
Nc1cccc(OCc2nc(N)nc(N)c2-c2ccc(Cl)c(Cl)c2)c1,survivor count,"dose: 400.0 mg/kg/injection, schedule: Q01DX001 (ip), vehicle: saline with Tween-80",5 of 6
OC(CN1CC1)c1ccccc1 (stereo unspecified),survivor count,"dose: 80.0 mg/kg/injection, schedule: Q01DX009 (ip), vehicle: Klucel (hydroxypropylcellulose) (HPC)",5 of 6
same,survivor count,"dose: 100.0 mg/kg/injection, schedule: Q04DX003 (ip), vehicle: Klucel (hydroxypropylcellulose) (HPC)",5 of 6
same,survivor count,[1],2 of 6
same,survivor count,[2],0 of 6
